In paper PMC10509461 one finds binding data, which are given here for seven molecules.

Amino acid sequences for entries named in this document (tags omitted).
UniProt Q02650: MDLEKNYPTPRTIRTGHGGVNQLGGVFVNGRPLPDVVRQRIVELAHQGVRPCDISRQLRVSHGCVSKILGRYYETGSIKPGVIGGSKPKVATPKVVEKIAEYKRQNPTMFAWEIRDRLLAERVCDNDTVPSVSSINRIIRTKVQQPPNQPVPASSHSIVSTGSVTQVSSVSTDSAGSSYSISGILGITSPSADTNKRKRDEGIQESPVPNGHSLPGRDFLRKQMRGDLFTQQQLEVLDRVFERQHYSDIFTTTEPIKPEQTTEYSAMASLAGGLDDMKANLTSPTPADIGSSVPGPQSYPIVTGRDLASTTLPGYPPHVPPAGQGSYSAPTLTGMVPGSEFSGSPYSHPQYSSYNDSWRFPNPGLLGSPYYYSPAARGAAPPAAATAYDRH
UniProt Q61466: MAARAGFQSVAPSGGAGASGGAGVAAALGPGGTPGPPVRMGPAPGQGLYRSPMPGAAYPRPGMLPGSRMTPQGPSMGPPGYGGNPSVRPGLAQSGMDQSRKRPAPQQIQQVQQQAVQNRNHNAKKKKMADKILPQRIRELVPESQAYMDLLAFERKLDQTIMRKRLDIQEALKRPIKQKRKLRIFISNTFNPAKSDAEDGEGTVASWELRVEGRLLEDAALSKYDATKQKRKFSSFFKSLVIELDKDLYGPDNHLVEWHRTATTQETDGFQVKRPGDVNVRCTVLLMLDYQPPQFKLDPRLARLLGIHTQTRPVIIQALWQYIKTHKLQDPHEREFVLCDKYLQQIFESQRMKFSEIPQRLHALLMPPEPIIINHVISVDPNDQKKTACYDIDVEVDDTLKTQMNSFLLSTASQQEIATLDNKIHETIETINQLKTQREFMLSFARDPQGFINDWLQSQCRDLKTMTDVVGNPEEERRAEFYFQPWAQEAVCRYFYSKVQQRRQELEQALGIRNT
UniProt Q3TKT4: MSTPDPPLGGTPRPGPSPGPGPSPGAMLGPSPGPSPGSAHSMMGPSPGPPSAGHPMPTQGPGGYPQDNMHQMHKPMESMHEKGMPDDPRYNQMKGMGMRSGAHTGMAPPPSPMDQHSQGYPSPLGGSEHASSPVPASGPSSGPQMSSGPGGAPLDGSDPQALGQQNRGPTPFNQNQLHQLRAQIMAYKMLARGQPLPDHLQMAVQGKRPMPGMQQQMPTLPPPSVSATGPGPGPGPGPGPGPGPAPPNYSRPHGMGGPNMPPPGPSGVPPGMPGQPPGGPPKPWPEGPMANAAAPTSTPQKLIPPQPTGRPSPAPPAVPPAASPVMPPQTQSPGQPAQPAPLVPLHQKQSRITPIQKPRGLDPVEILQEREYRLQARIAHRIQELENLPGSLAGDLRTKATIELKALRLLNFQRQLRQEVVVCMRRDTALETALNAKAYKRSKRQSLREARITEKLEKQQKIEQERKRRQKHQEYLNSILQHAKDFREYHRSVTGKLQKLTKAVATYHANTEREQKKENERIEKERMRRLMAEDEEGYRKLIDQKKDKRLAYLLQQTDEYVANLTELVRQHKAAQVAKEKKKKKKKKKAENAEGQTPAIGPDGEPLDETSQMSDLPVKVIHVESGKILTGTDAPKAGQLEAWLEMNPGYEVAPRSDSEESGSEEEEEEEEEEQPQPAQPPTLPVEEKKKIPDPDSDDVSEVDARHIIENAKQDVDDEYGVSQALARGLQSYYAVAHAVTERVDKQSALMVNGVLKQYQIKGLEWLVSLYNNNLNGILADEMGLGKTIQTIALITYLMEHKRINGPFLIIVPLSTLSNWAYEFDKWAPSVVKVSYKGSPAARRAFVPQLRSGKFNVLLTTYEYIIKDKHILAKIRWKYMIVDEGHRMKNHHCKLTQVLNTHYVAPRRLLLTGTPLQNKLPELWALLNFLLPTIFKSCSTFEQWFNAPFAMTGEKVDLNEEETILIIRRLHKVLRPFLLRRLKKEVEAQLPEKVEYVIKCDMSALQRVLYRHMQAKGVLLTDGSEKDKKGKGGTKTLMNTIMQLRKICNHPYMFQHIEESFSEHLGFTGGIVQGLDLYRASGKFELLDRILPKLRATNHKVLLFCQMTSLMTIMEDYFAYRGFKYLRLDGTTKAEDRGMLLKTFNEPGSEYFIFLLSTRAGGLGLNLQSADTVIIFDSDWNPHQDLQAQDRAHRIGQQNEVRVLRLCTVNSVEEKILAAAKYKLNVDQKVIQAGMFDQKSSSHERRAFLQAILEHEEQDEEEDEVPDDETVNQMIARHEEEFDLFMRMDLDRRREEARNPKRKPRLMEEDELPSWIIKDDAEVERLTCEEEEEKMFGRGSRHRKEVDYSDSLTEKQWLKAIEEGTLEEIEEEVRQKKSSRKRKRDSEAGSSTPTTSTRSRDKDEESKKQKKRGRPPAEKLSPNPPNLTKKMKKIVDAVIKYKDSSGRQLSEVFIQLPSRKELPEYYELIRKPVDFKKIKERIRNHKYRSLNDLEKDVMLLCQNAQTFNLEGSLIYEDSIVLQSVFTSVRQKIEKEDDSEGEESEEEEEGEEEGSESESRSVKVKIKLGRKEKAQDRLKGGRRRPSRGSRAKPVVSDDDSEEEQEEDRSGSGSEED
UniProt O54941: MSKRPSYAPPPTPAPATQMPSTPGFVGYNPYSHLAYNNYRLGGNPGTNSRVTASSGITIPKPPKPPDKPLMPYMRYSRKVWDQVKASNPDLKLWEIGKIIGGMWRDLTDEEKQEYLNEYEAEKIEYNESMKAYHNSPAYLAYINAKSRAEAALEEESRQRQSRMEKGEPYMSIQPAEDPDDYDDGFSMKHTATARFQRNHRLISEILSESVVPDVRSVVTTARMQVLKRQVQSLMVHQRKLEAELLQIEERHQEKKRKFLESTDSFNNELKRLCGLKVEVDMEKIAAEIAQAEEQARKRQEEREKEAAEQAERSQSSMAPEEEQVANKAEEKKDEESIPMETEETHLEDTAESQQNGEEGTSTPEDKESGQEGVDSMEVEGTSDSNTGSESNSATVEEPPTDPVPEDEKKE
UniProt P97496: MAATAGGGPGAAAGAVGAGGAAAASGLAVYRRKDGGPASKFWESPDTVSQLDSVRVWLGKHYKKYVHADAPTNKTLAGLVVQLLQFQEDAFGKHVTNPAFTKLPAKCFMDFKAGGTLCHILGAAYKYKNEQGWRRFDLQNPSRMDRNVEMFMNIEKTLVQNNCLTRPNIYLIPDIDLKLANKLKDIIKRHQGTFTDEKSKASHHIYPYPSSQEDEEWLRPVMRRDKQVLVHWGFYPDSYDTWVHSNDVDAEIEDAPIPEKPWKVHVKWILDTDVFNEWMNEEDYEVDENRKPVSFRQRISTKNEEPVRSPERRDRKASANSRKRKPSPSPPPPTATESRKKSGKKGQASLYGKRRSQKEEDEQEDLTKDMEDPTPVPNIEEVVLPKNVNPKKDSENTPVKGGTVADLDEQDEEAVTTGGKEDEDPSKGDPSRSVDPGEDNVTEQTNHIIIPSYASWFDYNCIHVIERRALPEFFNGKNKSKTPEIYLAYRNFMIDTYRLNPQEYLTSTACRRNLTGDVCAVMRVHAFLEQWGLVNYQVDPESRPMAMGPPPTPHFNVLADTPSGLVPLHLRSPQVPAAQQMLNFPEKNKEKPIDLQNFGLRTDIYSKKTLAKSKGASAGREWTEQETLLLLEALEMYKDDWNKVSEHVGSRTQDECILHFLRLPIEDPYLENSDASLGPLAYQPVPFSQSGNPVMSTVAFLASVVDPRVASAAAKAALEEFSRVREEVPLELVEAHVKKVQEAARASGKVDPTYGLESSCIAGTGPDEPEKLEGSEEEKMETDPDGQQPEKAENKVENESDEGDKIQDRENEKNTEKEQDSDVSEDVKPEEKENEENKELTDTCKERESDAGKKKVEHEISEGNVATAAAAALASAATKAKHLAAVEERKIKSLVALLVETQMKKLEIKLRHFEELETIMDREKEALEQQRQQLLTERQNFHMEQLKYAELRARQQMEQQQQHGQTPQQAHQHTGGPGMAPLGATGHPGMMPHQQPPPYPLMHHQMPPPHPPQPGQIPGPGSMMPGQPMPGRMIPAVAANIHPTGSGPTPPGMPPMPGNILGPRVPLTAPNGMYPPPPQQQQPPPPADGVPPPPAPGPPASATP

Sequences and labels used below:
B1: Arid4b (Sap180) (protein, UniProt A2CG63 1-1314)
chain: MKALDEPPYLTVGTDVSAKYRGAFCEAKIKTAKRLVKVKVTFRHDSSTVEVQDDHIKGPLKVGAIVEVKNLDGAYQEAVINKLTDASWYTVVFDDGDEKTLRRSSLCLKGERHFAESETLDQLPLTNPEHFGTPVIGKKTNRGRRSNHIPEEESSSSSSDDDEEERKQTDELLGKVVCVDYVSLEKKKAMWFPALVVCPDCSDEIAVKKDNILVRSFKDGKFTSVPRKDVHEITSDTVPKPDAVLKQAFDQALEFHKSRAIPANWKTELKEDSSSSEAEEEEEEEDDEKEKEDNSSEEEEEIEPFPEERENFLQQLYKFMEDRGTPINKRPVLGYRNLNLFKLFRLVHKLGGFDNIESGAVWKQVYQDLGIPVLNSAAGYNVKCAYKKYLYGFEEYCRSANIDFQMALPEKVLNKPCKDCENKEVKVKEESETEIKEVNVEDSKNVMPKEETPAEDESERKENIKPSLGSKKSLLECIPAQSDEEKEAHITKLEENENLEDKDGGRARTEEAFSTEVDGEEEQARSGDETNKEEDEDDEEIEEEEEEDEEEDEDEDDDDNNEEEEFECYPPGMKVQVRYGRGKNQKMYEASIKDSDVEGGEALYLVHYCGWNVRYDEWIKADKIVRPADKNVPKIKHRKKIKNKLDKEKDRDEKYSPKNCKLRRLSKSPFQSNPSPEMVSKLDLADAKNSDTAHIKSIEITSILNGLQASESSAEDSEQEDERCTQDVDNIGKDESKVEHSTHSRNELISKEEQSSPSLLEENKVHTDLVIAKTVSKSPERLRKDMEAISEDTDFEEEDEITKKRKDVKKDTTDKALKPQTKRGKRRYCSADECLQTGSPGKKEDRTKSKEPLCTENSSNSSSDEDEEEKSKAKMTPTKKYNGLEEKRKSLRTTSFYSGFSEVAEKRIKLLNNSDERLQNNRAKDRKDVWSSIQGQWPKKTLKELFSDSDTEAAASPPHPAPDEGAVEESLQTVAEEESCSPIMELEKPLPASVDNKPIEEKPLEVSDRKTEFPSSGSNSVLNTPPTTPESPSSVTITEASQQQSSVTVSVPLPPNQEEVRSIKSETDSTIEVDSVVGELQDLQSEGNSSPAGFDASVSSSSSNQPEPDNPEKACTGQKRVKDTQGVGSSSKKQKRSHKATVVNNKKKGKGTNSSDSEELSAGESVTKTQTIKSVPTGMKTHNSKSPARVQSPGKGGRNGDKDPDLKEPSNRLPKVYKWSFQTSDLENMTSAERISILQEKLQEIRKHYLSLKSEVASIDRRRKRLKKKERESAATSSSSSSPSSSSITAAVMLTLAEPSMSSASQNGMSVECR
B2: Arid4a (Rbp1) (protein, UniProt F8VPQ2 1-1261)
chain: MKAADEPAYLTVGTDVSAKYRGAFCEAKIKTVKRLVKVKVLLKQDNTTQLVQDDQVKGPLRVGAIVETRTSDGSIQEAIISKLTDASWYTVVFDDGDERTLRRTSLCLKGERHFAESETLDQLPLTNPEHFGTPVIAKKTNRGRRSSLPITEDEKEEESSEEEDEDKRRLNDELLGKVVSVASTAESTGWYPALVVSPSCNDDVTVKKDQCLVRSFIDSKFYSIARKDIKELDILTLPESELCARPGLRRASVFLKGRIVPDNWKMDISEILESSSSDDEECPAEEHEEEKEKEAKKEEEELPEEELDPEERDNFLQQLYKFMEDRGTPINKPPVLGYKDLNLFKLFRLVYHQGGCGNIDSGAVWKQIYMDLGIPILNSAASYNVKTAYRKYLYGFEEYCRSANIQFRTIHHHEPKVKEEKKDFEDSMDEALKEAPEMPLLDVKSEPEENTDSNSESDREDTELKSPRGRRKIVRDANCIKKEIEEEKIEDKFLRDDLENKDAGDDDDDGDPAAKREHELLFGRKSTPKNKEKKIKKPEDSERDSDEEEEKSQEREETESRCDSEGEDEEDDTEPCLTGTKVKVKYGRGKTQKIYEASIKSTEMDDGEILYLVHYYGWNVRYDEWVKADRIIWPLDKGGPKKKQKKKVKNKEDSEKDEKRDEERQKSKRGRPPLKSTFSPNMPYSLSKTSNSEGKSDSCSSDSEADDQLEKSSGGEDLSPDVKEELEKNENAHDDKLDEENPKIVHISKENDRTQAQPSDTLTVEAGDSDQIVHIFGDKVDQVEEFKKQVEKSPKGKGRRSKTKDLSLELIKISPFGQEEAGSEAHGDVHSLEFSSLECKNFSSTEDDIDPYEKEKKLKRKILGQQSPEKKLRLDNGMEMTTGVSQERSDDGAGAEGMKGAHVEQHFETEGEGMPSLTAEPDQGLQELTSEKSDSPAEEEPVHTPLKEEEDAMPLIGPETLVCHEVDLDDLDEKDKTSIEDVVVEGSESNSLASVPPALPPVAQHNFSVASPLTLSQDESRSIKSESDITIEVDSIAEESQEGLCERESANGFEASVASGACSIIAHERESREKGQKRPSDGNSGLIAKKQKRTPKRTSAAAKTEKNGAGQSSDSEDLPAMDSSSNCTPVKRLTLPKSQKLPRSPARTSPHIKDAEKEKHREKHPNSSPRTYKWSFQLNELDNMNSTERISFLQEKLQEIRKYYMSLKSEVATIDRRRKRLKKKDREVSHAGASMSSASSDTGMSPSSSSPPQNVLAVECR
B3: Suds3 (Sds3) (protein, UniProt Q8BR65 1-328)
chain: MSAAGLLAPAPAPAAAPAAPEYYPEDEEELESAEDDERSCRGRESDEDTEDASETDLAKHDEEDYVEMKEQMYQDKLASLKRQLQQLQEGTLQEYQKRMKKLDQQYRERIRNAELFLQLETEQVERNYIKEKKAAVKEFEDKKVELKENLIAELEEKKKMIENEKLTMELTGDSMEVKPIMTRKLRRRPNDPVPIPDKRRKPAPAQLNYLLTDEQIMEDLRTLNKLKSPKRPASPSSPEHLPATPAESPAQRFEARIEDGKLYYDKRWYHKSQAIYLESKDNQKLSCVISSVGANEIWVRKTSDSTKMRIYVGQLQRGLFVIRRRSAA

No constants are given. Whether binding was seen depends on the method and setting. In cells and extracts the contact can be indirect. A yes stands for co-enrichment or nearness to the bait. Other partners may have been found.

The target of this test is full-length Pax5 protein (mouse) (UniProt Q02650). As to the kind of experiment: affinity purification with mass spectrometry; Co-IP-MS: nuclear extracts of in vitro cultured Pax5+/+, Pax5∆CRD1/− or Pax5∆CRD1,2/− pro-B cells, IP with anti-Pax5 paired domain antibody on Protein A Mag Sepharose beads, 2 h at 4°C; washes with 20 mM Tris pH 8.0, 1.5 mM MgCl2, 10% glycerol, 250 mM NaCl, 0.15% NP-40; label-free quantification, abundance normalized to equal amounts of the bait (Pax5).
As for “Smarcd1 (Baf60A) (from UniProt Q61466 1-515)”, the binding entry is on record as “binds”.

Consider “Smarca4 (Brg1) (from UniProt Q3TKT4 1-1613)”, for which the binding result is given as “binds”.

Consider “Smarce1 (Baf57) (from UniProt O54941 1-411)”, for which the binding entry is on record as “binds”.

Consider “Smarcc1 (Baf155) (from UniProt P97496 1-1104)”, for which the binding result is listed as “binds”.

Take B1: the binding entry is “binds”.

For B2, the binding entry is given as “binds”.

With B3, the binding entry is “binds”.
